Test results published in PubChem BioAssay AID1794845 (National Center for Advancing Translational Sciences (NCATS), 2023).
The whole screen tested about 6,900 compounds, of which fewer than 10 were called active. The call rests on the fitted dose curve; in most records, active means well fitted curve in the direction sought with a large enough effect; inconclusive means small, poorly fitted or top-dose-only effect, or another doubt; inactive means no such curve, though single readings can be large or run the other way. The list shows a part of the results.

Protein sequences, listed by entry. Tags and fused reporters are not part of them. Lines headed by an entry give the natural chain unless they say otherwise; changes in a name come on top.
UniProt C7C422: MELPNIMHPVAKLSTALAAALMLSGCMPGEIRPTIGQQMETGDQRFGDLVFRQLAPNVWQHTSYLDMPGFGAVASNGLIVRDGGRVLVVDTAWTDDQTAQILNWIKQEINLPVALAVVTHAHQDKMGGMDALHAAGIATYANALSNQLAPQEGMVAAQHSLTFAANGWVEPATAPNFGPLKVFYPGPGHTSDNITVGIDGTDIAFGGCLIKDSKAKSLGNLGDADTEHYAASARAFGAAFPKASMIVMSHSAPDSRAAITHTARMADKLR

The compounds below were run against Metallo-beta-lactamase type 2 (Klebsiella pneumoniae) (UniProt C7C422) (assay: qHTS to identify inhibitors of the New Delhi Metallo-beta-lactamase (NDM): primary screen against the NCATS Gemini Collection). Settings: NDM-1 enzyme, meropenem hydrolysis, absorbance 300 nm; at 38.4 µM (top of the series) unless noted.
Outline: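 NDM-1 at 2 nM final in 50 mM HEPES pH 7.0, 1 uM ZnSO4, 0.01% Tween20, preincubated >30 min with compound. Meropenem 50 uM final added; absorbance at 300 nm after 30 min.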
Further: % of control where 0% means no effect.

Activity % (negative = inhibition), inactive:
O=C(NC[C@H]1O[C@@H](CO)[C@@H](O)[C@H]1N1CCCC1)c1ccc(F)c(Cl)c1 2.46% [at 57.5 µM]
Cn1ncc(N2CCC(CNC(=O)CCN3CCCC3=O)C2)cc1=O (stereo unspecified) 2.41%
O=C(C1CCCC1)N1CCCC(c2noc(COc3ccccc3)n2)C1 (stereo unspecified) -3.59%
Cc1ccsc1C(=O)N1CCN(c2cc(-c3cccs3)[nH]n2)CC1 13.5%
Cc1ccc(C2(O)CCN(C(=O)c3cnn4cc(CCO)cnc34)CC2)nc1 10.4%
COc1ccccc1CNC(=O)CC1COCCN1C(=O)c1cnccn1 (stereo unspecified) -10.7%
CC(C)NC(=O)N1CCC2(CC1)CN(C(=O)Cc1c[nH]c3ccccc13)CCO2 -5.48%
CCn1cc(CN2CCN(C(=O)c3cccs3)CC2)ccc1=O 0.398%
O=C1NCCCCCCN[C@H]2C[C@H](c3nc(-c4cnccn4)no3)C[C@@H]12 5.19%
O=C(O)[C@H]1C[C@@H](C(=O)NCc2ccncc2)CN(C2CCOCC2)C1 8.65%
CCC[C@H]1CN(C(=O)c2cc(=O)[nH]c3cc(F)ccc23)C[C@@H]1N 0%
O=C(NCc1csc(-c2cnccn2)n1)C1NCCc2[nH]cnc21 (stereo unspecified) -2.7%
COCC(=O)N[C@H]1C[C@H]2C(=O)NC[C@@H](CCC(=O)N3CCN(c4ccccn4)CC3)N2C1 7.81%
Cn1cc(CNC(=O)C[C@@H]2C[C@H]3O[C@H](CNC4CCCC4)[C@@H](O)[C@H]3O2)cn1 -4.18% [at 57.5 µM]
O=C(NC1CC1)c1nc(-c2cccnc2)c2cnccn12 13.1% [at 57.5 µM]
CC1CCCCN1Cc1nnc2cc(-c3nc(-c4ccccc4)no3)ccn12 (stereo unspecified) 11.3%
COc1c(F)ccc(C(=O)N2CCC3(CCCNC3)C2)c1F (stereo unspecified) 9.57%
CN(C1CCCc2ccccc21)S(=O)(=O)c1cccc(C(F)(F)F)c1 (stereo unspecified) 12.7%
CC1(C)NC(=O)N(CC(=O)N[C@H](Cc2ccccn2)C2CC(O)C2)C1=O (stereo partly specified) -0.419%
COc1ccccc1OC1(C(=O)O)CCN(Cc2ccc(-c3ccn[nH]3)o2)CC1 3.21%
CC(C)CN1CCN(C(=O)CC2CCN(S(C)(=O)=O)C2)CC1 (stereo unspecified) 26.1%
COc1ccccc1Nc1ccnc(N2CCCC(C(=O)NCc3cccc(Cl)c3)C2)n1 (stereo unspecified) 4.86%
COc1ccc(CN2CCCC3(C2)CN(C)C(=O)O3)cc1C(=O)O (stereo unspecified) -6.01%
C[S+](=O)([O-])CCn1ncc2cc(OCC3CCN(Cc4ccccc4)CC3)ccc21 12.6% [at 57.5 µM]
Cc1ccc(NC(=O)CC2CCN(S(C)(=O)=O)C2)cc1 (stereo unspecified) 5.7%
CCS(=O)(=O)Nc1ccc(C)n(CC(=O)N(C)Cc2ccccc2)c1=O 7.38%
Cc1cc(C)c2c(N3CCCC(OCc4cccnc4)C3)ncnc2n1 (stereo unspecified) 7.83%
O=C(c1nc(-c2cc(Cl)cc(Cl)c2)c2ccccn12)N1CCCC1 4.41%
Cc1ccc(NC(=O)N2CCC3(CC2)CC(Cc2nc(-c4ccccc4)no2)CCO3)cc1C (stereo unspecified) 6.66%
CC(=O)Nc1ccc(CN2CCC3(C2)C(=O)N(C)c2ccccc23)cc1 (stereo unspecified) -7.74%
COc1ccc(-c2cc(C(=O)N3CCCC3)ccn2)cc1F 9.31%
O=C(Nc1nc2ccccc2s1)c1ccc2c(c1)OCCN(CCC(F)(F)F)C2 9.6% [at 57.5 µM]
CCOc1ccc(CN(CCOC)C(=O)C2CC3(CCNCC3)CN2)cc1 (stereo unspecified) 0.537%
CCn1nc(C)c(CNC(=O)c2cc(COc3ccc4ncccc4c3)on2)c1C 6.42%
COCC(=O)N[C@@H]1CN(Cc2cn(C)nc2C)C[C@H]1CO -3.58%
COc1ccc(CC(=O)N2CCC(c3n[nH]c(=O)n3Cc3ccc(F)cc3)CC2)cc1 1.79%
COCCn1nnnc1C1CC2(CCOCC2)C(=O)N1Cc1ccc(SC)cc1 (stereo unspecified) 0.477%
O=C(C1CCCC1)N1CCC(C(=O)N2CCCC2c2ccccn2)CC1 (stereo unspecified) 17.4%
COCC1CN(C(C)=O)CC12CCN(Cc1cccc(Cl)c1F)CC2 (stereo unspecified) -9.29%
COC(=O)[C@@H]1Cc2ncn(C(C)C)c2CN1S(C)(=O)=O 0% [at 57.5 µM]
CCn1cc(CN2CCN(C(=O)CCc3ccccc3)CC2)ccc1=O 7.37%
O=C(CCc1ccccc1)N1CCCC(CN2CCCC2)CC1 (stereo unspecified) -0.27%
Cc1nc2ncnn2c(C)c1CCC(=O)N1C[C@@H](N)C[C@H]1C(=O)NC(C)C 0.957%
Cn1cc(-c2cc3c(ccn3Cc3ccncc3)c(N3CCOCC3)n2)cn1 23.9% [at 57.5 µM]
O=C(c1cn(CCC2CCCCN2)nn1)N1CCc2nc[nH]c(=O)c2CC1 (stereo unspecified) -0.118%
O=C(Nc1ccc2ncnc(N3CCCCC3)c2c1)c1cc(F)ccc1F 10.3%
O=C(c1ccnc(CC2CC(=O)N(c3ccccc3)C2)c1)N1CCCCC1 (stereo unspecified) 5.37%
CCC(=O)N1Cc2ccccc2CC2(CCCN2CC2CCOCC2)C1 (stereo unspecified) -0.92%
Cc1cnc(C(=O)N2CCCC2c2nc(CCOCC3CCCC3)no2)cn1 (stereo unspecified) -0.239%
O=C1NC2(Cc3ccccc31)CN(C(=O)c1ccccc1)C2 12.4% [at 57.5 µM]
CCOC(=O)C[C@@H]1C[C@@H](C(C)C)[C@H](CNC(=O)c2cccnc2)C=C1C 14.1% [at 57.5 µM]
COCCCn1c(C)cnc1CC1CCN(C(=O)C2CCCCC2)CC1 48.2%
Cc1ccc(CNC(=O)N2CCc3nnc(C4CC4)n3CC2)cc1 13.1%
Cc1cnc(C2CC2)n1C1CCN(C(=O)C2CC2)CC1 -2.82%
CCN1CC2(CCN(Cc3nc(COC)no3)CC2)CC(c2ccccc2)C1=O (stereo unspecified) 16.1%
O=S(=O)(NC[C@H]1O[C@@H](CO)[C@@H](O)[C@H]1N1CCOCC1)c1ccc(Cl)cc1 -7.97%
c1cc(CN(CCN2CCCCC2)CC2CCCN(C3CCCC3)C2)c2nonc2c1 (stereo unspecified) 5.81%
Cc1ccc(CNC(=O)N2CCC(c3nc(CCOCC4CCOCC4)no3)C2)cc1 (stereo unspecified) -7.54%
COC[C@@H]1CN(S(=O)(=O)c2cnc[nH]2)C[C@H]1c1ccccn1 1.39%
Cn1cnc(C(=O)N2CCC3(CC2)CC(N(Cc2ccccc2)C2CC2)CCO3)c1 (stereo unspecified) -13.7%
CCc1nc2c(c(-c3ccc(Cl)cc3)n1)CN([S+](=O)([O-])c1c(C)noc1C)CC2 -1.09%
Cc1noc(C)c1S(=O)(=O)N1CCc2n[nH]c(=O)n2CC1 9.56%
COc1ccc(NC(=O)c2cc3c(s2)CN(C2CCCC2)C3)c(OC)c1 2.49%
Cn1nccc1C(=O)N1CCC2(CCCN(Cc3cccc(F)c3F)C2=O)C1 (stereo unspecified) -9.07%
COCCNC(=O)C1c2ccccc2C(=O)N(Cc2ccco2)C12CCCCC2 (stereo unspecified) 3.06%
O=C(NCCc1ccc(Cl)cc1)C1CCc2nnc(C3CCN([S+](=O)([O-])c4ccccc4)CC3)n21 (stereo unspecified) 0.376%
Cc1nc(-c2c3n(c(=O)n(Cc4ccccc4C(F)(F)F)c2=O)CCCCC3)no1 2.52%
Cc1cc(C(=O)N2CCC3(CC2)CC(N2CCN(c4ccccn4)CC2)CCO3)n[nH]1 (stereo unspecified) 0.195%
Cn1cc(CN2CCCC(C(=O)N3CCOCC3)C2)c(-c2ccc(C3CCCCC3)cc2)n1 (stereo unspecified) -16.6%
COc1ccc(S(=O)(=O)N2CCOC[C@H](Oc3ccccc3)C2)cc1 0.651% [at 57.5 µM]
O=C1N(CC2CC2)CCCC1(O)CNCc1cc(F)cc(F)c1 (stereo unspecified) -1.11%
OCCOCCn1cnc(-c2ccccc2)c1COCc1ccccc1 -1.13%
O=C(CC1CCCCC1)NCc1nnc2cc(-c3nc(C4CC4)no3)ccn12 1.31%
COc1cccc(S(=O)(=O)N2C[C@@H](C)[C@](O)(C3CCC3)C2)c1 -6.57%
CN(C)CC1(O)CCC2(CCN(C(=O)C3CCCC3)CC2)CC1 -2.34%
COc1ccccc1-c1cc(C(=O)NC2CC2)nn2cnnc12 0.0703% [at 57.5 µM]
CCOc1ccc(Cl)cc1CN(C)C(=O)C1CC(=O)N(CC)C1 (stereo unspecified) -2.57%
Cc1ccc(CN2CCNC(=O)C2CC(=O)N(CC(C)C)CC(C)C)cc1 (stereo unspecified) 7.96%
COc1ccccc1-c1[nH]nc2ncc(C(=O)NCC3CC3)nc12 -1.26% [at 57.5 µM]
OCCC1CN(c2nccc(-c3ccccn3)n2)CCN1Cc1ccoc1 (stereo unspecified) 3.48%
CCN(CC)C(=O)[C@@H]1C[C@@H](NC(=O)c2ccn(CC)c(=O)c2)CN1C(C)=O 25%
O=C(NC1CCCC1)c1ccc(OC2CCN(C(=O)C3CCCO3)CC2)c(Cl)c1 (stereo unspecified) 2.13%
CC(C)n1cc(CN2C[C@@H]3C(=O)N(Cc4ccc5c(c4)OCO5)C(=O)[C@@H]3C2)c2ccccc21 -1.66%
Cc1ccnn1CCC(=O)N[C@@H]1COCC[C@H]1Oc1ccc(C(N)=O)cc1 -8.46%
Fc1cccc(CN2CCO[C@@H](COc3ccccn3)[C@@H]2c2ccccc2)c1 1.31%
CCOC(=O)N1CCN(C(C(=O)O)c2ccc(OC)nc2OC)CC1 (stereo unspecified) 71.5%

16 structures out of the list, ordered by count of non-hydrogen atoms, largest number first:
Activity % (negative = inhibition), inactive:
O=C(NCCc1ccc(Cl)cc1)C1CCc2nnc(C3CCN([S+](=O)([O-])c4ccccc4)CC3)n21 (stereo unspecified) 0.376%
Cc1ccc(NC(=O)N2CCC3(CC2)CC(Cc2nc(-c4ccccc4)no2)CCO3)cc1C (stereo unspecified) 6.66%
CC(C)n1cc(CN2C[C@@H]3C(=O)N(Cc4ccc5c(c4)OCO5)C(=O)[C@@H]3C2)c2ccccc21 -1.66%
COCC(=O)N[C@H]1C[C@H]2C(=O)NC[C@@H](CCC(=O)N3CCN(c4ccccn4)CC3)N2C1 7.81%
COc1ccc(CC(=O)N2CCC(c3n[nH]c(=O)n3Cc3ccc(F)cc3)CC2)cc1 1.79%
C[S+](=O)([O-])CCn1ncc2cc(OCC3CCN(Cc4ccccc4)CC3)ccc21 12.6% [at 57.5 µM]
COCCNC(=O)C1c2ccccc2C(=O)N(Cc2ccco2)C12CCCCC2 (stereo unspecified) 3.06%
Fc1cccc(CN2CCO[C@@H](COc3ccccn3)[C@@H]2c2ccccc2)c1 1.31%
CCOc1ccc(CN(CCOC)C(=O)C2CC3(CCNCC3)CN2)cc1 (stereo unspecified) 0.537%
Cc1cc(C)c2c(N3CCCC(OCc4cccnc4)C3)ncnc2n1 (stereo unspecified) 7.83%
O=C(NC[C@H]1O[C@@H](CO)[C@@H](O)[C@H]1N1CCCC1)c1ccc(F)c(Cl)c1 2.46% [at 57.5 µM]
O=C(NCc1csc(-c2cnccn2)n1)C1NCCc2[nH]cnc21 (stereo unspecified) -2.7%
O=C1N(CC2CC2)CCCC1(O)CNCc1cc(F)cc(F)c1 (stereo unspecified) -1.11%
O=C1NC2(Cc3ccccc31)CN(C(=O)c1ccccc1)C2 12.4% [at 57.5 µM]
O=C(NC1CC1)c1nc(-c2cccnc2)c2cnccn12 13.1% [at 57.5 µM]
Cc1cnc(C2CC2)n1C1CCN(C(=O)C2CC2)CC1 -2.82%

Random excerpt: 2 entries already listed, in no set order.
Activity % (negative = inhibition), inactive:
O=C(CCc1ccccc1)N1CCCC(CN2CCCC2)CC1 (stereo unspecified) -0.27%
O=C(NCc1csc(-c2cnccn2)n1)C1NCCc2[nH]cnc21 (stereo unspecified) -2.7%
